In all, about 200,000 compounds went through this assay and about 25 (0.01%) were called active. Inconclusive results, whose numbers are uncertain, are shown with a selection of clear calls. Calls follow the shape of the dose curve; as a rule, active = well fitted inhibition curve with a large enough effect in the signal ratio, with a control signal flat (not every such curve was filed as active); inconclusive = small, poorly fitted or top-dose-only effect, or effect the other way, or a change in a side signal; inactive = flat fitted curve, though single readings scatter; the % refers to the signal ratio. A potency beside an inconclusive call is a rough fit, not a confirmed value.
assay: qHTS Assay for Modulators of Lamin A Splicing; conditions: HeLa LMNA splicing GFP/RFP minigene ratio, 48 h; ratio change, negative = inhibition: at 46.1 µM (top of the series) unless noted
In short: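 S3 HeLa stable clones carrying a lamin A-EGFP splicing minigene plus DsRed2 were seeded at 600 cells/well in Opti-MEM with 2% FBS, pin-dosed and incubated 48 h at 37°C. Acumen cytometry (488 nm) gave the GFP/RFP total-intensity ratio.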
% is scaled to controls: 0 for no effect and ±100 for the full control effect; potency is read from the fitted curve at half-maximal effect.

| Compound | ratio change, negative = inhibition | Potency |
| --- | --- | --- |
| O=C(c1ccc(Cl)cc1)c1ccc(CN2C(=O)c3ccccc3C2=O)o1 | inconclusive: 15.6% | – |
| O=S(=O)(c1ccc2[nH]c3c(c2c1)CCCC3)N1CCN(c2cccc(C(F)(F)F)c2)CC1 | – | inconclusive: 11.2 µM [fluorescent, partial curve] |
| O=C(C1CCN(S(=O)(=O)c2cccnc2)CC1)N1CCCCC1 | inactive | – |
| COc1ccc(Oc2cc(Cl)nc(N)n2)cc1 | inconclusive: 20.8% [at 46 µM] | – |
| CCOC(=O)C1CCCN(S(=O)(=O)c2cc(Br)cc3c2N(C(=O)C2CC2)CC3)C1 (centres undefined) | inconclusive: 3.85% | – |
| CCN(CC)S(=O)(=O)c1cccc(C(=O)NC(C)C(c2cccs2)N2CCCC2)c1 (centres undefined) | inconclusive: -1.82% [at 46 µM] | – |
| CCOc1ccccc1CNC(=O)c1cn(-c2ccc(OC)cc2)c(=O)c2ccccc12 | inconclusive: 0.166% [at 46 µM] | – |
| N#Cc1nc(COc2cccc(Cl)c2)oc1N1CCCC1 | inactive | – |
| Cc1cccc(NC(=O)CSc2nc(=O)n(Cc3ccco3)c3c2CCC3)c1C | inconclusive: 4.85% [at 46 µM] | – |
| CCN(CC)C(=O)CN(C#N)c1nc(OC)nc(N(C)C)n1 | inactive | – |
| O=C(COCc1cc(-c2ccco2)on1)Nc1cccc(O)c1 | inactive | – |
| O=C(N/N=C/c1ccc(Cl)cc1Cl)c1n[nH]c2c1CCCC2 | inconclusive: -19.7% | – |
| COc1ccc(S(=O)(=O)N(n2c(C)nnc2-n2nc(C)cc2C)S(=O)(=O)c2ccc(OC)cc2)cc1 | inactive | – |
| CC(C)(C)N1CC(c2nc3ccccc3n2CCOc2ccccc2)CC1=O (centres undefined) | inactive | – |
| CCc1ccccc1OCCCOc1ccc(OC)cc1 | inconclusive: 25% | – |
| O=C(Nc1ccc(Br)cc1Cl)N1CCOCC1 | inconclusive: 32.1% [at 46 µM] | – |
| CN(C)c1ccc(NC(=O)CN2C(=O)c3ccccc3Sc3ccc(C(=O)N4CCCC4)cc32)cc1 | inactive | – |
| COc1ccc(-n2c(=O)c(CCc3ccccc3)nc3cnc(OC)nc32)cc1 | inconclusive: -10.9% | – |
| Nc1ncn(C2C[C@H](O)[C@@H](CO)O2)c(=O)n1 (some centres undefined) | inconclusive: -15.8% | – |
| CC(=O)CSc1nc2ccc(Nc3nc(N4CCOCC4)nc(N4CCOCC4)n3)cc2s1 | inconclusive: -35.1% | – |
| COc1ccc(C(CNC(=O)c2cccc([N+](=O)[O-])c2)N2CCOCC2)cc1 (centres undefined) | inconclusive: 14% [at 46 µM] | – |
| Cc1ccc(OCCCOc2cccc3cccnc23)cc1C | inconclusive: -22.9% | – |
| CCn1c(SCC(=O)Nc2sc3c(c2C#N)CCCC3)nnc1-c1ccncc1 | inactive | – |
| Cc1ccc(C(=O)NC(C)C(c2cccs2)N2CCCC2)s1 (centres undefined) | inactive | – |
| O=C(CSc1nnc(-c2ccccn2)n1Cc1ccco1)c1ccc(Cl)cc1 | inconclusive: 12.4% | – |
| CCOC(=O)N1CCN(c2ccc(C(=O)c3ccccc3)cc2F)CC1 | – | inconclusive: 35.5 µM [falling, single point] |
| CN(Cc1ccccc1)C(=O)CCCn1c(=O)[nH]c2cc(Cl)ccc2c1=O | inactive | – |

| Compound | ratio change, negative = inhibition | Potency |
| --- | --- | --- |
| CC(C)NC(=O)c1onc(CSc2ccccc2F)c1C(=O)O | inactive: 6.94% [at 0.0737 µM] | – |
| COc1ccc(NC(=O)c2c(NCc3ccc(N(C)C)cc3)sc3c2CCC3)cc1 | inactive | – |
| Nc1ccc2c3c(cccc13)C(=O)N(c1ccccc1)C2=O | inconclusive: 13.2% [at 46 µM] | – |
| CCOc1ccccc1NC(=O)N(Cc1ccc(F)cc1)C1CCN(CC)CC1 | inconclusive: -35.8% [at 46 µM] | – |
| CN(C(=O)N1CCN(c2ccccn2)CC1)c1ccccc1 | inactive | – |
| CCC(=O)C1=C(c2ccc(Cl)cc2)N(C(=O)CC)n2c(C)nnc2S1 | – | inconclusive: 11.2 µM [inhibitor, partial curve] |
| CCS(=O)(=O)c1ccc(O)c(Nc2cc(C)nc(SC)n2)c1 | inconclusive: -28.6% [at 46 µM] | – |
| CCCCCCCCCCCC(=O)c1c(O)cccc1O | inactive | – |
| CCOC(=O)c1c(NC(=O)C2c3ccccc3Oc3ccccc32)sc(C(N)=O)c1C | inactive | – |
| CCN(CC)S(=O)(=O)c1ccc2c(c1)nc(CCC(=O)O)n2CC | inactive | – |
| O=C(O)c1cc(-c2cccs2)nn1-c1cccc(Cl)c1 | inconclusive: -19% [at 9.22 µM] | – |
| CC1CCCC(NC(=O)COC(=O)COc2ccc(Cl)cc2)C1C (centres undefined) | inactive | – |
| CC(=O)Oc1ccc(-c2ccc(C(=O)Nc3cccc(S(=O)(=O)N4CCOCC4)c3)cc2)cc1 | inconclusive: -40.8% [at 46 µM] | – |
| CC(C)NC(=O)c1ccc(-n2c(-c3ccccc3)cc3c2CCCC3)cc1 | inconclusive: -17.2% [at 46 µM] | – |
| Cc1ccc(-c2ccnc(=S)[nH]2)cc1 | – | inconclusive: 35.5 µM [cytotoxic, single point] |
| CCCN(CC1CC1)C(=S)NC(=O)c1ccc(S(=O)(=O)N2CCOCC2)cc1 | inconclusive: 13.5% [at 46 µM] | – |
| O=[N+]([O-])c1cc2c(c(CSc3nnc(Nc4ccccc4)s3)c1)OCOC2 | inconclusive: -8.22% | – |
| CC(C)NC(=O)COC(=O)c1cc(Br)ccc1Cl | inactive | – |
| O=C(Nc1ccc(O)cc1)c1cc2ccccc2c(=O)s1 | inconclusive: -26.7% [at 46 µM] | – |
| N#Cc1ccc(NC(=S)Nc2ccccc2)cc1 | inconclusive: 32.4% | – |
| CCOC(=O)CC1=NN(c2ccccc2)C(=O)C1 | inconclusive: -2.25% [at 46 µM] | – |
| COc1ccc(-c2cc3ccc(O)c(CN4CCC(C)CC4)c3oc2=O)cc1 | inactive | – |
| O=C(CSCc1c(F)cccc1Cl)Nc1cccnc1 | inconclusive: 50.6% [at 46 µM] | – |
| Nc1ccc2c(c1Cl)C(=O)c1ccc(N)c(Cl)c1C2=O | inconclusive: -21.6% [at 46 µM] | – |
| CN(C)c1ccc(-c2nc(NCCN3CCOCC3)c3ccccc3n2)cc1 | – | inconclusive: 17.8 µM [cytotoxic, partial curve] |
| COc1cccc(NC(=O)CSc2nc3c([nH]c4ccccc43)c(=O)n2C)c1 | inconclusive: 86.3% [at 46 µM] | – |
| COC(=O)c1scc(-c2ccc(C)cc2)c1S(=O)(=O)Nc1ccc(F)cc1F | inconclusive: -26.2% [at 46 µM] | – |

— PubChem BioAssay AID1487 (National Center for Advancing Translational Sciences (NCATS), 2009)
